Assay results published in patent US20120308570A1, “METHODS FOR TREATING DISEASES” (priority 2009, published 2012).
Results are given in words; binding and its absence hold for the method and conditions named. In cells and extracts the contact can be indirect. Some entries that bind do so weakly or less than the wild type.

Amino acid sequences for entries named in this document (tags omitted). A change or cut given only in a name is not applied to a line headed by its entry.
UniProt Q8R5B6: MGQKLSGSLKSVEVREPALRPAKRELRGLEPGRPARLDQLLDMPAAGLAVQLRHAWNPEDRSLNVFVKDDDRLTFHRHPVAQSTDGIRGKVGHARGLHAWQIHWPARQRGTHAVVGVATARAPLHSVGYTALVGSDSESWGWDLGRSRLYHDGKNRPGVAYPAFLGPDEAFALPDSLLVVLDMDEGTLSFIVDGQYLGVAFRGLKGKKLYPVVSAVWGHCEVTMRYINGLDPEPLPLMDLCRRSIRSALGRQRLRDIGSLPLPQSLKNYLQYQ
UniProt O88838: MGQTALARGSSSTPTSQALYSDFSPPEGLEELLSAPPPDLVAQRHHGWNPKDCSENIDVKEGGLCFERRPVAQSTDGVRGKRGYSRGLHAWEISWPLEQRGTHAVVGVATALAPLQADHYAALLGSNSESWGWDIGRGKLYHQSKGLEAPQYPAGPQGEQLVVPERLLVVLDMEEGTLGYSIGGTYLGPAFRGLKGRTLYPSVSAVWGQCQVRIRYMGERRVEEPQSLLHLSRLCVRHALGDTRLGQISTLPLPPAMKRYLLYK

Tests used:
[1] = biological target: T1, full-length iNOS protein (endogenous, from LPS/IFNγ-treated mouse bone marrow-derived macrophages) (mouse) (UniProt P29477); experiment: anti-Flag co-immunoprecipitation from mixed 293T and BMDM lysates, anti-iNOS Western blot
T1 sequence: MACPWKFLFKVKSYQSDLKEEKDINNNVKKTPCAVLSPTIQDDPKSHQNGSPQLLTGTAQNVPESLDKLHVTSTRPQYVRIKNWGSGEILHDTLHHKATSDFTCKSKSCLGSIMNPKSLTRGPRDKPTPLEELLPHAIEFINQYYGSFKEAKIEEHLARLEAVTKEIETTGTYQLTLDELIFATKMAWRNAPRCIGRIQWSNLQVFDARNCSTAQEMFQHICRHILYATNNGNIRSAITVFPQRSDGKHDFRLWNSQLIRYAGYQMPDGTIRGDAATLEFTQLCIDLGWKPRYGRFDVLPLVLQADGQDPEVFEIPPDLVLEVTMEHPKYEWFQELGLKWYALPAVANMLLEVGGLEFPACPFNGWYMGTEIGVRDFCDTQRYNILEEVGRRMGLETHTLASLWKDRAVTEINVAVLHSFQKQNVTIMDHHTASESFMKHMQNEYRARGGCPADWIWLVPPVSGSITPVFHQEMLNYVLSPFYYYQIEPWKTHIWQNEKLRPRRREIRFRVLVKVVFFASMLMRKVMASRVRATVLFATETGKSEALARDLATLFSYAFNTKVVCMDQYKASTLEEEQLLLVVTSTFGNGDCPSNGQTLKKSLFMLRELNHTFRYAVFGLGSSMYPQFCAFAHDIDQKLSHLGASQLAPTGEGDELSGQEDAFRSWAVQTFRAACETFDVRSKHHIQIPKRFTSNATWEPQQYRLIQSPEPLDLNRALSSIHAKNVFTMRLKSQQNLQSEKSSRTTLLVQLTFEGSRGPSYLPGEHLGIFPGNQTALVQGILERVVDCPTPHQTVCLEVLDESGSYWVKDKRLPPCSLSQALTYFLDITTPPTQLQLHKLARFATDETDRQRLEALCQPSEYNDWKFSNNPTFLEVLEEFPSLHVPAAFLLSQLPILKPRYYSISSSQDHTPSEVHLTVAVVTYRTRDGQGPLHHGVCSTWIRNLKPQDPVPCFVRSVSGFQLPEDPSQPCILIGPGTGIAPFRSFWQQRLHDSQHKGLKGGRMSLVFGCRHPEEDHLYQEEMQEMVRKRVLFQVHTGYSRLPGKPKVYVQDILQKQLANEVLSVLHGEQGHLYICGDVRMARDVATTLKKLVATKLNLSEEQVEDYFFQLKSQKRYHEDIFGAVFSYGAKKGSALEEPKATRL

[2] = biological target: T1, full-length iNOS protein (endogenous, from LPS/IFNγ-treated mouse bone marrow-derived macrophages) (mouse); experiment: anti-Flag co-immunoprecipitation, Western blot (FIG. 6A)
[3] = biological target: T1, full-length iNOS protein (endogenous, from LPS/IFNγ-treated mouse bone marrow-derived macrophages) (mouse); experiment: anti-Flag co-immunoprecipitation, anti-iNOS Western blot
[4] = biological target: T1, full-length iNOS protein (endogenous, from LPS/IFNγ-treated mouse bone marrow-derived macrophages) (mouse); experiment: pull-down from BMDM lysate with SSB-2ΔSB coupled to Sepharose, anti-iNOS Western blot
[5] = biological target: T1, full-length iNOS protein (endogenous, from LPS/IFNγ-treated mouse bone marrow-derived macrophages) (mouse); experiment: pull-down from BMDM lysate, Western blot (FIG. 5A)

| binding [1] | binding [2] | binding [3] | Substance | other results |
| --- | --- | --- | --- | --- |
| binds | binds |  | Flag-tagged SSB-4 (murine, expressed in 293T cells) (from UniProt Q8R5B6 1-273) |  |
|  |  | binds | Flag-tagged SSB-2 mutant Q160/L161 (from UniProt O88838 1-264) |  |
|  |  | binds | Flag-tagged SSB-2 mutant D118/H119 (from UniProt O88838 1-264) |  |
| binds | binds |  | Flag-tagged SSB-2 (murine, wild-type, expressed in 293T cells) (from UniProt O88838 1-264) |  |
|  |  |  | SSB-2ΔSB (recombinant murine SSB-2 SPRY domain, residues 12-224) (from UniProt O88838 12-224) | binding [4]: binds; binding [5]: binds |
